From the supplement of paper PMC6445147
Single values of this data set are uncertain.

B1: human tRNA-Pro; a variant is named by its letters at N, in order (parent)
chain: GGCTCGTTGGTCTAGNGGTATGATTCTCGCTTAGGGTGCGAGAGGTCCCGGGTTCNNATCCCGGACGAGCCC

How the values were obtained:
[1] = variants of: B1; test: tRNA Pol-III promoter activity, log2 (circRNA frequency / plasmid DNA frequency) (log2 ratio); higher = stronger promoter activity; details: HEK293T; construct: no Pol-II promoter ((-)CMV library)
[2] = variants of: B1; test: tRNA 3' processing efficiency (processed reads / all reads, maximum-likelihood estimate) (fraction); higher = more efficient 3' processing; details: HEK293T; construct: no Pol-II promoter ((-)CMV library)
[3] = variants of: B1; test: tRNA 5' processing efficiency (processed reads / all reads, maximum-likelihood estimate) (fraction); higher = more efficient 5' processing; details: HEK293T; construct: CMV Pol-II promoter ((+)CMV library, decapped)

Row | Variant | tRNA Pol-III promoter activity (log2) [1] | tRNA 3' processing efficiency [2] | tRNA 5' processing efficiency [3]
1 | TAA A20C T53A | 4.63 | 0.1 | 0.25
2 | GAA G9A G17T | -0.852 | 0.25 | 
3 | TAA A14T T59G | 2.08 | 0.4 | 
4 | GAA A20G T53A T54A | 4.45 | 0.25 | 
5 | AAA C55T A58G | 3.3 | 0.17 | 
6 | AAA C55T A58T | 2.41 | 0.57 | 
7 | GAA G9A A20T T53G | 1.85 | 0.25 | 
8 | CAA C55G A58C | 3.21 | 0.5 | 
9 | GAA A20G T53G | 0.201 | 0.25 | 
10 | GAA G9A A14C A58T | 7.03 | 0.62 | 
11 | GAA G9A G15C | -0.772 | 0.25 | 
12 | GAA A20T T59G | 1.18 | 0.32 | 
13 | GAA A20T T59C | 4.34 | 0.35 | 
14 | GAA A20T T59A | 0.624 | 0.31 | 
15 | CAA A20G | 0.357 | 0.33 | 
16 | CAA A20T | -0.38 | 0.33 | 
17 | GAA A58G T59A | 3.23 | 0.18 | 
18 | GAA A58G T59C | 3.12 | 0.53 | 
19 | GAA A58G T59G | 2.83 | 0.26 | 
20 | CAA G9A A58G T59G | 6.25 | 0.4 | 
21 | TAA A20G T53A | 2.55 | 0.38 | 
22 | CAA A20C A58G | 2.93 | 0.25 | 
23 | AAA A20G A58G | 2.83 | 0.26 | 

Row | Variant | tRNA Pol-III promoter activity (log2) [1] | tRNA 3' processing efficiency [2] | tRNA 5' processing efficiency [3]
24 | GAA G9A A58G | -0.0102 | 0.33 | 0.33
25 | GAA G9A A58C | -0.433 | 0.25 | 
26 | GAA G9A A58T | 0.587 | 0.52 | 
27 | TAA A20T C55T | 2.18 | 0.2 | 
28 | GAA G9A A20C A58T | 2.34 | 0.29 | 
29 | GAA A20T T53C | 0.723 | 0.26 | 0.33
30 | GAA A20T T53G | 2.15 | 0.33 | 0.33
31 | GAA A20T T53A | 2.97 | 0.37 | 
32 | GAA C55T A58G | -0.713 | 0.43 | 
33 | GAA C55T A58C | -0.321 | 0.4 | 
34 | GAA C55T A58T | -0.243 | 0.29 | 
35 | CAA A20G T59G | 4.34 | 0.25 | 
36 | TAA A20T T54A | 6.75 | 0.43 | 
37 | CAA C55T | 0.796 | 0.35 | 
38 | CAA C55G | 1.64 | 0.27 | 
39 | GAA A20C T53A | 1.28 | 0.25 | 
40 | TAA A20G A58G | 2.68 | 0.13 | 
41 | TAA A20G A58T | 3.85 | 0.87 | 0.5
42 | GAA G9A A14T G38A | 4.68 | 0.2 | 
43 | GAA G9A A20T T59C | 3.7 | 0.25 | 
44 | AAA G9A A58G | 4.12 | 0.62 | 
45 | GAA A58T T59G | 1.38 | 0.32 | 0.5
46 | GAA A58T T59C | 2.73 | 0.4 | 

Row | Variant | tRNA Pol-III promoter activity (log2) [1] | tRNA 3' processing efficiency [2] | tRNA 5' processing efficiency [3]
47 | GAA A58T T59A | 3.25 | 0.36 | 
48 | GAA A20G T59A | 2.53 | 0.5 | 
49 | GAA A20G T59C | 0.884 | 0.25 | 
50 | GAA C70T | 3.23 | 0.62 | 
51 | GAA G9A A58T T59C | 4.52 | 0.57 | 
52 | GAA G9A A58T T59G | 6.62 | 0.15 | 
53 | GAA G9A A58T T59A | 5.6 | 0.58 | 
54 | CAA G9A G15A | 4.44 | 0.3 | 
55 | GAA A20G T53C A58T | 3.26 | 0.2 | 
56 | GAA A20G G50A | 3.94 | 0.25 | 
57 | AAA G9A G15A T19C | 5.53 | 0.67 | 
58 | AAA A58T | 4.31 | 0.93 | 0.25
59 | AAA A58C | 3.74 | 0.97 | 0.6
60 | AAA A58G | 1.36 | 0.18 | 
61 | TAA A58G T59G | 3.43 | 0.21 | 
62 | TAA A58G T59A | 3.73 | 0.29 | 
63 | GAA C55G A58T | -0.175 | 0.17 | 0.25
64 | GAA C55G A58G | -0.0288 | 0.29 | 
65 | GAA G9A A14T T59C | 3.74 | 0.14 | 
66 | TAA G9A A41G | 6.54 | 0.76 | 
67 | CAA A20G C55T | 5.56 | 0.04 | 
68 | CAA C55A T59A | 3.52 | 0.53 | 
69 | GAA A20C A58G | 1.29 | 0.57 | 0.14

Row | Variant | tRNA Pol-III promoter activity (log2) [1] | tRNA 3' processing efficiency [2] | tRNA 5' processing efficiency [3]
70 | CAA A43T | 3.71 | 0.25 | 
71 | CAA A58T T59G | 5.39 | 0.73 | 
72 | TAA A20G | -1.07 | 0.25 | 0.14
73 | TAA A20T | -0.993 | 0.4 | 0.33
74 | CAA G9A C55T | 4.51 | 0.33 | 
75 | GAA G9A G15A A58T | 3.36 | 0.4 | 
76 | GAA A20T A58G T59C | 4.45 | 0.17 | 
77 | GAA A20T A58G T59G | 4.3 | 0.17 | 
78 | TAA A20G T53A A58T | 6.03 | 0.25 | 
79 | GAA G9A G17C C55G | 3.23 | 0.25 | 
80 | GAA G2A | 3.04 | 0.57 | 
81 | GAA G9A A14G G18C | 3.86 | 0.75 | 
82 | GAA A33G A58G | 5.41 | 0.36 | 
83 | TAA A20G T54A | 3.05 | 0.5 | 
84 | TAA C55T T59A | 2.13 | 0.25 | 
85 | TAA C55T T59G | 7.43 | 0.05 | 
86 | TAA C55T T59C | 6.53 | 0.33 | 
87 | AAA A58G T59C | 5.03 | 0.33 | 
88 | GAA G9A A58C T59A | 5.39 | 0.18 | 
89 | GAA G9A G15T A58C | 3.84 | 0.14 | 
90 | GAA G9A G17T A58C | 4.21 | 0.5 | 
91 | AAA A58T T59G | 5.19 | 0.25 | 
92 | AAA A58T T59A | 4.65 | 0.41 | 

Row | Variant | tRNA Pol-III promoter activity (log2) [1] | tRNA 3' processing efficiency [2] | tRNA 5' processing efficiency [3]
93 | GAA A20T T54A | 2.77 | 0.29 | 
94 | AAA A20T C55A | 3.9 | 0.6 | 
95 | AAA A20T C55T | 2.55 | 0.2 | 
96 | GAA A20G T53A T59G | 3.67 | 0.2 | 
97 | GAA A33G | 8.1 | 0.32 | 
98 | GAA A20T A58C T59C | 6.11 | 0.11 | 
99 | GAA A20T A58C T59A | 5.26 | 0.43 | 
100 | GAA G9A A14C T19A | 3.62 | 0.25 | 
101 | TAA A20C T59G | 4.25 | 0.4 | 
102 | GAA G9A A20G T59A | 2.25 | 0.2 | 
103 | CAA A20T T59A | 3.38 | 0.12 | 
104 | GAA A20G | -3.93 | 0.78 | 0.29
105 | GAA A20C | -1.14 | 0.5 | 0.45
106 | GAA A20T | 1.08 | 0.45 | 0.4
107 | GAA C49A | 5.93 | 0.25 | 
108 | GAA G9A C55T | 0.348 | 0.44 | 
109 | GAA G9A A58G T59C | 4.94 | 0.5 | 
110 | CAA A14T T59G | 4.47 | 0.38 | 
111 | CAA A14T T59C | 0.758 | 0.5 | 

Exported in markdown: part of the list above

| Row | Variant | tRNA Pol-III promoter activity (log2) [1] | tRNA 3' processing efficiency [2] | tRNA 5' processing efficiency [3] |
| --- | --- | --- | --- | --- |
| 23 | AAA A20G A58G | 2.83 | 0.26 |  |
| 24 | GAA G9A A58G | -0.0102 | 0.33 | 0.33 |
| 25 | GAA G9A A58C | -0.433 | 0.25 |  |
| 26 | GAA G9A A58T | 0.587 | 0.52 |  |
| 27 | TAA A20T C55T | 2.18 | 0.2 |  |
| 28 | GAA G9A A20C A58T | 2.34 | 0.29 |  |
| 29 | GAA A20T T53C | 0.723 | 0.26 | 0.33 |
| 30 | GAA A20T T53G | 2.15 | 0.33 | 0.33 |
| 31 | GAA A20T T53A | 2.97 | 0.37 |  |
| 32 | GAA C55T A58G | -0.713 | 0.43 |  |
| 33 | GAA C55T A58C | -0.321 | 0.4 |  |
| 34 | GAA C55T A58T | -0.243 | 0.29 |  |
| 35 | CAA A20G T59G | 4.34 | 0.25 |  |
| 36 | TAA A20T T54A | 6.75 | 0.43 |  |
| 37 | CAA C55T | 0.796 | 0.35 |  |
| 38 | CAA C55G | 1.64 | 0.27 |  |
| 39 | GAA A20C T53A | 1.28 | 0.25 |  |
| 40 | TAA A20G A58G | 2.68 | 0.13 |  |
| 41 | TAA A20G A58T | 3.85 | 0.87 | 0.5 |
| 42 | GAA G9A A14T G38A | 4.68 | 0.2 |  |
| 43 | GAA G9A A20T T59C | 3.7 | 0.25 |  |
| 44 | AAA G9A A58G | 4.12 | 0.62 |  |
| 45 | GAA A58T T59G | 1.38 | 0.32 | 0.5 |
| 46 | GAA A58T T59C | 2.73 | 0.4 |  |
| 47 | GAA A58T T59A | 3.25 | 0.36 |  |
| 48 | GAA A20G T59A | 2.53 | 0.5 |  |
